Experiment [1] addresses human IL-33 (human). Kind of experiment: affinity studies of Example 22, method and antigen not named.
Experiment [2] has as its target human IL-33 (human). The experiment in a line: MSD-SET (similar procedure), 25 C.

Three molecules from patent US20260167710A1 can be followed below.

These are yes or no findings as the source states them, for the method shown. Binding can be weak; no strength is given.

B1: 22A06-429 (antibody, V domains shown)
VH: QVQLVQSGAEVKKPGASVKVSCKASGYTFISYGMHWVRQAPGQGLEWMGEINPHGGSTSYAQKFQGRVTMTRDTSTSTVYMELSSLRSEDTAVYYCARPSAAYSHYLGIDMWGRGTLVTVSS
VL: DIQMTQSPSSVSASVGDRVTITCRASQGISSWLAWYQQKPGKAPKLLIYAASRLQSGVPSRFSGSGSGTDFTLTISSLQPEDFATYYCQQANVFPLTFGGGTKVEIKR
Consider B1, for which the binding result in the experiment with human IL-33 (human) [1] and in the experiment with human IL-33 (human) [2] was “binds” throughout.

B2: 22A06-502 (antibody, V domains shown)
VH: QVQLVQSGAEVKKPGASVKVSCKASGYTFISYGMHWVRQAPGQGLEWMGEINPHGGSTSYAQKFQGRVTMTRDTSTSTVYMELSSLRSEDTAVYYCARPSAAYSHYLGIDLWGRGTLVTVSS
VL: DIQMTQSPSSVSASVGDRVTITCRTSQGISSWLSWYQQKPGKAPKLLIYAASSLQSGVPSRFSGSGSGTDFTLTISSLQPEDFATYYCQQAHVLPLTFGGGTKVEIKR
B2: the binding result with human IL-33 (human) [1] and with human IL-33 (human) [2] was “binds” each time.

B3: 22A06-481 (antibody, V domains shown)
VH: QVQLVQSGAEVKKPGASVKVSCKASGYTFISYGMHWVRQAPGQGLEWMGEINPHGGSTSYAQKFQGRVTMTRDTSTSTVYMELSSLRSEDTAVYYCARPSAAYSHYLGLDIWGRGTLVTVSS
VL: DIQMTQSPSSVSASVGDRVTITCRASQGISPWLAWYQQKPGKAPKLLIYAGSSLQSGVPSRFSGSGSGTDFTLTISSLQPEDFATYYCQQANVFPLTFGGGTKVEIKR
In the case of B3, the binding result with human IL-33 (human) [1] and in the experiment with human IL-33 (human) [2] was “binds” each time.
